{"source": "patent US8979831B2", "about": "(priority 2008, dated 2015)", "key": {"porcine liver": {"system": "porcine liver", "experiment": "Acetyl Chloride injection into porcine liver using a plastic dilator as delivery tool"}, "ex vivo porcine liver": {"system": "ex vivo porcine liver", "experiment": "Acetyl chloride in diglyme injected into ex vivo porcine liver; temperature over 5 minutes", "details": "4M in diglyme, average column"}, "liver parenchyma": {"system": "liver parenchyma", "design": "species or system porcine"}, "porcine liver samples": {"system": "porcine liver samples", "details": "for Changes Temp: C. Trial #1 / Changes Temp: C. Trial #2 / Changes Temp: C. Trial #3 / Changes Temp: C. Trial #4: peak minus 0:00"}, "[1]": {"details": "first Changes line, 0:00 minus 0:30"}, "[2]": {"details": "second Changes line, 0:00 minus 5:00"}, "[3]": {"details": "AC 100 micro + 200 micro NaOH 1M, Trial #1"}, "[4]": {"details": "AC 100 micro + 200 micro NaOH 5M, Trial #2"}, "[5]": {"details": "AC 100 micro + 200 micro NaOH 10M, Trial #3"}, "[6]": {"details": "AC 200 micro + 100 micro NaOH 1M, Trial #1"}, "[7]": {"details": "AC 200 micro + 100 micro NaOH 5M, Trial #2"}, "[8]": {"details": "AC 200 micro + 100 micro NaOH 10M, Trial #3"}, "[9]": {"details": "AC 200 micro + 100 micro NaOH 15M, Trial #4"}, "[10]": {"details": "AC 200 micro + 200 micro NaOH 1M, Trial #1"}, "[11]": {"details": "AC 200 micro + 200 micro NaOH 5M, Trial #2"}, "[12]": {"details": "AC 200 micro + 200 micro NaOH 10M, Trial #3"}, "[13]": {"details": "AC 300 micro + 100 micro NaOH 1M, Trial #1"}, "[14]": {"details": "AC 300 micro + 100 micro NaOH 5M, Trial #2"}, "[15]": {"details": "AC 300 micro + 100 micro NaOH 10M, Trial #3"}, "[16]": {"details": "AC 300 micro + 100 micro NaOH 15M, Trial #4"}, "[17]": {"details": "AC 300 micro + 200 micro NaOH 1M, Trial #1"}, "[18]": {"details": "AC 300 micro + 200 micro NaOH 5M, Trial #2"}, "[19]": {"details": "AC 300 micro + 200 micro NaOH 10M, Trial #3"}, "[20]": {"details": "Acetyl Chloride alone: 200 microliters, first Changes line, 0:00 minus 0:30"}, "[21]": {"details": "Acetyl Chloride alone: 200 microliters"}, "[22]": {"details": "Acetyl Chloride alone: 200 microliters, second Changes line, 0:00 minus 5:00"}, "[23]": {"details": "Acetyl Chloride alone: 300 microliters, first Changes line, 0:00 minus 0:30"}, "[24]": {"details": "Acetyl Chloride alone: 300 microliters"}, "[25]": {"details": "Acetyl Chloride alone: 300 microliters, second Changes line, 0:00 minus 5:00"}, "[26]": {"details": "Acetyl Chloride alone: 500 microliters, first Changes line, 0:00 minus 0:30"}, "[27]": {"details": "Acetyl Chloride alone: 500 microliters"}, "[28]": {"details": "Acetyl Chloride alone: 500 microliters, second Changes line, 0:00 minus 5:00"}}, "note": "Read-outs that look alike come from different tables or passages of the source."}
{"smiles": "CC(=O)Cl", "note": "[Acetyl Chloride]", "values": [{"measurement": "Changes pH Trial #1", "setting": "porcine liver; [1]", "result": 5.86}, {"measurement": "Changes pH Trial #2", "setting": "porcine liver; [1]", "result": 1.64}, {"measurement": "Changes pH Trial #3", "setting": "porcine liver; [1]", "result": 3.09}, {"measurement": "Changes Temp: C. Trial #1", "setting": "porcine liver; peak minus 0:00", "result": 9.9, "unit": "C."}, {"measurement": "Changes Temp: C. Trial #2", "setting": "porcine liver; peak minus 0:00", "result": 8.3, "unit": "C."}, {"measurement": "Changes Temp: C. Trial #3", "setting": "porcine liver; peak minus 0:00", "result": 8.3, "unit": "C."}, {"measurement": "Changes pH Trial #1", "setting": "porcine liver; [2]", "result": 6.84}, {"measurement": "Changes pH Trial #2", "setting": "porcine liver; [2]", "result": 3.28}, {"measurement": "Changes pH Trial #3", "setting": "porcine liver; [2]", "result": 5.63}, {"measurement": "Max delta T", "setting": "ex vivo porcine liver; 250 ul", "result": 28.7667, "unit": "C."}, {"measurement": "Tmax", "setting": "ex vivo porcine liver; 250 ul", "result": 46.4667, "unit": "C."}, {"measurement": "Max delta T", "setting": "ex vivo porcine liver; 2000 ul", "result": 37.6333, "unit": "C."}, {"measurement": "Tmax", "setting": "ex vivo porcine liver; 2000 ul", "result": 55.0667, "unit": "C."}, {"measurement": "Changes pH 1M Trial #1", "setting": "liver parenchyma; AC 100 micro + 100 micro NaOH 1M, Pre-base minus 0:00", "result": "−4.69"}, {"measurement": "Changes pH 5M Trial #2", "setting": "liver parenchyma; AC 100 micro + 100 micro NaOH 5M, Pre-base minus 0:00", "result": "−7.08"}, {"measurement": "Changes Temp: C. 5M Trial #2", "setting": "liver parenchyma; AC 100 micro + 100 micro NaOH 5M, peak minus Pre-base", "result": 17, "unit": "C."}, {"measurement": "Changes pH 10M Trial #3", "setting": "liver parenchyma; AC 100 micro + 100 micro NaOH 10M, Pre-base minus 0:00", "result": "−7.54"}, {"measurement": "Changes Temp: C. 10M Trial #3", "setting": "liver parenchyma; AC 100 micro + 100 micro NaOH 10M, peak minus Pre-base", "result": 29.8, "unit": "C."}, {"measurement": "Changes pH 15M Trial #4", "setting": "liver parenchyma; AC 100 micro + 100 micro NaOH 15M, Pre-base minus 0:00", "result": "−7.82"}, {"measurement": "Changes Temp", "setting": "liver parenchyma; [3]", "result": 16.6, "unit": "C."}, {"measurement": "Changes pH", "setting": "liver parenchyma; [3]", "result": "−8.3"}, {"measurement": "Changes Temp", "setting": "liver parenchyma; [4]", "result": 22.7, "unit": "C."}, {"measurement": "Changes pH", "setting": "liver parenchyma; [4]", "result": "−8.97"}, {"measurement": "Changes Temp", "setting": "liver parenchyma; [5]", "result": 16, "unit": "C."}, {"measurement": "Changes pH", "setting": "liver parenchyma; [5]", "result": "−8.58"}, {"measurement": "Changes Temp", "setting": "liver parenchyma; [6]", "result": 15.4, "unit": "C."}, {"measurement": "Changes pH", "setting": "liver parenchyma; [6]", "result": "−5.76"}, {"measurement": "Changes Temp", "setting": "liver parenchyma; [7]", "result": 7.9, "unit": "C."}, {"measurement": "Changes pH", "setting": "liver parenchyma; [7]", "result": "−7.46"}, {"measurement": "Changes Temp", "setting": "liver parenchyma; [8]", "result": 32.2, "unit": "C."}, {"measurement": "Changes pH", "setting": "liver parenchyma; [8]", "result": "−7.87"}, {"measurement": "Changes Temp", "setting": "liver parenchyma; [9]", "result": 23.3, "unit": "C."}, {"measurement": "Changes pH", "setting": "liver parenchyma; [9]", "result": "−7.8"}, {"measurement": "Changes Temp", "setting": "liver parenchyma; [10]", "result": 14, "unit": "C."}, {"measurement": "Changes pH", "setting": "liver parenchyma; [10]", "result": "−7.98"}, {"measurement": "Changes Temp", "setting": "liver parenchyma; [11]", "result": 20.6, "unit": "C."}, {"measurement": "Changes pH", "setting": "liver parenchyma; [11]", "result": "−8.9"}, {"measurement": "Changes Temp", "setting": "liver parenchyma; [12]", "result": 21.9, "unit": "C."}, {"measurement": "Changes pH", "setting": "liver parenchyma; [12]", "result": "−7.2"}, {"measurement": "Changes Temp", "setting": "liver parenchyma; [13]", "result": 22.5, "unit": "C."}, {"measurement": "Changes pH", "setting": "liver parenchyma; [13]", "result": "−6.15"}, {"measurement": "Changes Temp", "setting": "liver parenchyma; [14]", "result": 15.9, "unit": "C."}, {"measurement": "Changes pH", "setting": "liver parenchyma; [14]", "result": "−8.38"}, {"measurement": "Changes Temp", "setting": "liver parenchyma; [15]", "result": 16.3, "unit": "C."}, {"measurement": "Changes pH", "setting": "liver parenchyma; [15]", "result": "−8"}, {"measurement": "Changes Temp", "setting": "liver parenchyma; [16]", "result": 32, "unit": "C."}, {"measurement": "Changes pH", "setting": "liver parenchyma; [16]", "result": "−8.69"}, {"measurement": "Changes Temp", "setting": "liver parenchyma; [17]", "result": 25, "unit": "C."}, {"measurement": "Changes pH", "setting": "liver parenchyma; [17]", "result": "−8.12"}, {"measurement": "Changes Temp", "setting": "liver parenchyma; [18]", "result": 24.4, "unit": "C."}, {"measurement": "Changes pH", "setting": "liver parenchyma; [18]", "result": "−8.05"}, {"measurement": "Changes Temp", "setting": "liver parenchyma; [19]", "result": 28.4, "unit": "C."}, {"measurement": "Changes pH", "setting": "liver parenchyma; [19]", "result": "−9.4"}, {"measurement": "Changes pH Trial #1", "setting": "porcine liver samples; [20]", "result": 2.75}, {"measurement": "Changes pH Trial #2", "setting": "porcine liver samples; [20]", "result": 2.05}, {"measurement": "Changes pH Trial #3", "setting": "porcine liver samples; [20]", "result": 1.43}, {"measurement": "Changes pH Trial #4", "setting": "porcine liver samples; [20]", "result": 3.44}, {"measurement": "Changes Temp: C. Trial #1", "setting": "porcine liver samples; [21]", "result": 17.2, "unit": "C."}, {"measurement": "Changes Temp: C. Trial #2", "setting": "porcine liver samples; [21]", "result": 7.2, "unit": "C."}, {"measurement": "Changes Temp: C. Trial #3", "setting": "porcine liver samples; [21]", "result": 11.2, "unit": "C."}, {"measurement": "Changes Temp: C. Trial #4", "setting": "porcine liver samples; [21]", "result": 8.2, "unit": "C."}, {"measurement": "Changes pH Trial #1", "setting": "porcine liver samples; [22]", "result": 4.89}, {"measurement": "Changes pH Trial #2", "setting": "porcine liver samples; [22]", "result": 4.27}, {"measurement": "Changes pH Trial #3", "setting": "porcine liver samples; [22]", "result": 3.45}, {"measurement": "Changes pH Trial #4", "setting": "porcine liver samples; [22]", "result": 4.22}, {"measurement": "Changes pH Trial #1", "setting": "porcine liver samples; [23]", "result": 4.27}, {"measurement": "Changes pH Trial #2", "setting": "porcine liver samples; [23]", "result": 2.93}, {"measurement": "Changes pH Trial #4", "setting": "porcine liver samples; [23]", "result": 1.37}, {"measurement": "Changes Temp: C. Trial #1", "setting": "porcine liver samples; [24]", "result": 4.3, "unit": "C."}, {"measurement": "Changes Temp: C. Trial #2", "setting": "porcine liver samples; [24]", "result": 9.5, "unit": "C."}, {"measurement": "Changes Temp: C. Trial #3", "setting": "porcine liver samples; [24]", "result": 7.4, "unit": "C."}, {"measurement": "Changes Temp: C. Trial #4", "setting": "porcine liver samples; [24]", "result": 6.3, "unit": "C."}, {"measurement": "Changes pH Trial #1", "setting": "porcine liver samples; [25]", "result": 5.37}, {"measurement": "Changes pH Trial #2", "setting": "porcine liver samples; [25]", "result": 4}, {"measurement": "Changes pH Trial #4", "setting": "porcine liver samples; [25]", "result": 4.68}, {"measurement": "Changes pH Trial #1", "setting": "porcine liver samples; [26]", "result": 3.5}, {"measurement": "Changes pH Trial #2", "setting": "porcine liver samples; [26]", "result": 3.14}, {"measurement": "Changes pH Trial #3", "setting": "porcine liver samples; [26]", "result": 3.84}, {"measurement": "Changes Temp: C. Trial #1", "setting": "porcine liver samples; [27]", "result": 26.1, "unit": "C."}, {"measurement": "Changes Temp: C. Trial #2", "setting": "porcine liver samples; [27]", "result": 11.8, "unit": "C."}, {"measurement": "Changes Temp: C. Trial #3", "setting": "porcine liver samples; [27]", "result": 12.8, "unit": "C."}, {"measurement": "Changes pH Trial #1", "setting": "porcine liver samples; [28]", "result": 5.01}, {"measurement": "Changes pH Trial #2", "setting": "porcine liver samples; [28]", "result": 4.72}, {"measurement": "Changes pH Trial #3", "setting": "porcine liver samples; [28]", "result": 4.53}]}
